Data from publication PMC10308680 (Journal of Biomedical Science, 2023).
No constants are given. Whether binding was seen depends on the method and setting. Some results given as binding are weak or reduced against the parent protein; the word gives no strength.

Protein sequences, listed by entry. Tags and fused reporters are not part of them. Residues count along the entry.
UniProt P10747, residues 19-220: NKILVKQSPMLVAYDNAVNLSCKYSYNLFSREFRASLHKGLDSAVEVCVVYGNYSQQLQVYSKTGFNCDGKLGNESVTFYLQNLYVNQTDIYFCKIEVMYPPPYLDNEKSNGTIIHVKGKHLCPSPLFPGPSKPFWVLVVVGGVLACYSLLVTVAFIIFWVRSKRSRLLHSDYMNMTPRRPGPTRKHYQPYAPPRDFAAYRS

Target: CD28/GFP fusion protein (human) (UniProt P10747)
Test: flow cytometry on cells

B1: p2TA, CD28 dimer interface mimetic octapeptide, with D-Ala at both termini (peptide)
peptide: ASPMLVAYDA
modifications: D-Ala at both termini (first and last residue)
With B1 the binding was “binds”.
